Measured values from publication PMC11094575.
These are yes or no findings as the source states them, for the method shown. Binding seen in cells or lysates may run through a third protein. Some entries that bind do so weakly or less than the wild type.

Columns and labels:
[1] = biological target: T1, ID1 (human (endogenous in PAH sPASMCs)) (UniProt P41134); test: proximity ligation; endogenous in-situ interactions in human PAH sPASMCs
T1 sequence: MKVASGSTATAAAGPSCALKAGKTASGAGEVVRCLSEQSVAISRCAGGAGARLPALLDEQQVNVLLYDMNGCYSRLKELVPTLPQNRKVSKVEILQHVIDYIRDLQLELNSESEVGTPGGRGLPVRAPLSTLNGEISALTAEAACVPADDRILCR

[2] = biological target: T2, ID3 (human (endogenous in PAH sPASMCs)) (UniProt Q02535); test: as above
T2 sequence: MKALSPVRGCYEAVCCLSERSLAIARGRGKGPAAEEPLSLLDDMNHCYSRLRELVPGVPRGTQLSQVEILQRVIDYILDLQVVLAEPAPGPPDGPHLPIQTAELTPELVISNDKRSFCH

binding [1]: binds
binding [2]: binds
B1: HES‐5 (protein, UniProt Q5TA89 1-166)
chain: MAPSTVAVELLSPKEKNRLRKPVVEKMRRDRINSSIEQLKLLLEQEFARHQPNSKLEKADILEMAVSYLKHSKAFVAAAGPKSLHQDYSEGYSWCLQEAVQFLTLHAASDTQMKLLYHFQRPPAAPAAPAKEPKAPGAAPPPALSAKATAAAAAAHQPACGLWRPW
